Results as given in publication doi:10.1101/260919.
These are yes or no findings as the source states them, for the method shown. For some assays here: Binding seen in cells or lysates may run through a third protein. Some results given as binding are weak or reduced against the parent protein; the word gives no strength. Where a sequence is shown, tags or fusion partners need not be part of it.

Tests used:
[1] = biological target: T1, FLAG-tagged full-length NLRP1 (human), Q9C000; assay: co-IP; details: remark: other sources report otherwise
T1 chain: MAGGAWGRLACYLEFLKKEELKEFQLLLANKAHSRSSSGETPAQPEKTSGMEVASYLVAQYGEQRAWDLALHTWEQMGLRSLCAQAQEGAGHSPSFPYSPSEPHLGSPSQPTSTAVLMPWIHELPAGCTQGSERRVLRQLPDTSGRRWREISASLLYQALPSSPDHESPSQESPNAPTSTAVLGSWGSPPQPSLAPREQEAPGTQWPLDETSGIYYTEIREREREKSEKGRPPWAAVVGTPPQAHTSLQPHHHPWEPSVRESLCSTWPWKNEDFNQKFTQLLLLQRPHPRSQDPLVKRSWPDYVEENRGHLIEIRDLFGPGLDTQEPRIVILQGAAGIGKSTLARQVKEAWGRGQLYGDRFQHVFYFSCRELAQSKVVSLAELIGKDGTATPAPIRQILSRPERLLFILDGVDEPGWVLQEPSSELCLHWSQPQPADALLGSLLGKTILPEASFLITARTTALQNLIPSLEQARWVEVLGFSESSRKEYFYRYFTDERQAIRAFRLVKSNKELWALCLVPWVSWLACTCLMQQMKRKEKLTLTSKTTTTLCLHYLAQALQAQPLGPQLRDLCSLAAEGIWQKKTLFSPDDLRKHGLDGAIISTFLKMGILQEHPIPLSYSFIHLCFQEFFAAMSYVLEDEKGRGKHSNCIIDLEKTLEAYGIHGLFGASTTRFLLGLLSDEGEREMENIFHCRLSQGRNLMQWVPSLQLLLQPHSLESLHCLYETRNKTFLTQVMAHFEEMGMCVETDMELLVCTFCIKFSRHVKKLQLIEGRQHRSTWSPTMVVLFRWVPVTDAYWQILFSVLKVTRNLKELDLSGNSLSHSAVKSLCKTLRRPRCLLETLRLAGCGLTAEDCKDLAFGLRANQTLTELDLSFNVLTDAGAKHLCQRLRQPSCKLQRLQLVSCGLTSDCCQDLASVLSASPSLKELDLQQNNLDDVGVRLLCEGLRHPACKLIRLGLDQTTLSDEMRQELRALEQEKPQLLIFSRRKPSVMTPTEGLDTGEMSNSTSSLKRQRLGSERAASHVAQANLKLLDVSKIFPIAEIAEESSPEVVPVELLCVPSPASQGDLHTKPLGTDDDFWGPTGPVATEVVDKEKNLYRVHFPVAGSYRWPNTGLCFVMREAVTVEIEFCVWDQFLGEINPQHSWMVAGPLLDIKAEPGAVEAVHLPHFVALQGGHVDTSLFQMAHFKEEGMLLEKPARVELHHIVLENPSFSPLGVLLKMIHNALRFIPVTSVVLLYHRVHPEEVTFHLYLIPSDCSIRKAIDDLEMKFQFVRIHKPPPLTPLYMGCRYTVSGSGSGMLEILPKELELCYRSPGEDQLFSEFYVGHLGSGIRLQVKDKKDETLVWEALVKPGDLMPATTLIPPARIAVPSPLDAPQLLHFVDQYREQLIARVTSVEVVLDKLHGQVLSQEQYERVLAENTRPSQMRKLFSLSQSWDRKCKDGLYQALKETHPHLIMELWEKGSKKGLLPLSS

[2] = biological target: T1, FLAG-tagged full-length NLRP1 (human), …; assay: native gel or EMSA; details: remark: other sources report otherwise

B1: DPP9S (short splice isoform of DPP9), transfected, Q86TI2-1 1-863 (enzyme)
chain: MATTGTPTADRGDAAATDDPAARFQVQKHSWDGLRSIIHGSRKYSGLIVNKAPHDFQFVQKTDESGPHSHRLYYLGMPYGSRENSLLYSEIPKKVRKEALLLLSWKQMLDHFQATPHHGVYSREEELLRERKRLGVFGITSYDFHSESGLFLFQASNSLFHCRDGGKNGFMVSPMKPLEIKTQCSGPRMDPKICPADPAFFSFINNSDLWVANIETGEERRLTFCHQGLSNVLDDPKSAGVATFVIQEEFDRFTGYWWCPTASWEGSEGLKTLRILYEEVDESEVEVIHVPSPALEERKTDSYRYPRTGSKNPKIALKLAEFQTDSQGKIVSTQEKELVQPFSSLFPKVEYIARAGWTRDGKYAWAMFLDRPQQWLQLVLLPPALFIPSTENEEQRLASARAVPRNVQPYVVYEEVTNVWINVHDIFYPFPQSEGEDELCFLRANECKTGFCHLYKVTAVLKSQGYDWSEPFSPGEDEFKCPIKEEIALTSGEWEVLARHGSKIWVNEETKLVYFQGTKDTPLEHHLYVVSYEAAGEIVRLTTPGFSHSCSMSQNFDMFVSHYSSVSTPPCVHVYKLSGPDDDPLHKQPRFWASMMEAASCPPDYVPPEIFHFHTRSDVRLYGMIYKPHALQPGKKHPTVLFVYGGPQVQLVNNSFKGIKYLRLNTLASLGYAVVVIDGRGSCQRGLRFEGALKNQMGQVEIEDQVEGLQFVAEKYGFIDLSRVAIHGWSYGGFLSLMGLIHKPQVFKVAIAGAPVTVWMAYDTGYTERYMDVPENNQHGYEAGSVALHVEKLPNEPNRLLILHGFLDENVHFFHTNFLVSQLIRAGKPYQLQIYPNERHSIRCPESGEHYEVTLLHFLQEYL
binding [1]: binds

B2: FLAG-tagged full-length NLRP1, Q9C000 (protein)
chain: T1 chain
binding [2]: binds
